Drawing on paper doi:10.1101/2020.07.18.209973, this text covers binding for 2 substances.

For experiment [1], the target named is T1, P. berghei HA3-tagged cGMP-dependent protein kinase (P. berghei).
T1 sequence: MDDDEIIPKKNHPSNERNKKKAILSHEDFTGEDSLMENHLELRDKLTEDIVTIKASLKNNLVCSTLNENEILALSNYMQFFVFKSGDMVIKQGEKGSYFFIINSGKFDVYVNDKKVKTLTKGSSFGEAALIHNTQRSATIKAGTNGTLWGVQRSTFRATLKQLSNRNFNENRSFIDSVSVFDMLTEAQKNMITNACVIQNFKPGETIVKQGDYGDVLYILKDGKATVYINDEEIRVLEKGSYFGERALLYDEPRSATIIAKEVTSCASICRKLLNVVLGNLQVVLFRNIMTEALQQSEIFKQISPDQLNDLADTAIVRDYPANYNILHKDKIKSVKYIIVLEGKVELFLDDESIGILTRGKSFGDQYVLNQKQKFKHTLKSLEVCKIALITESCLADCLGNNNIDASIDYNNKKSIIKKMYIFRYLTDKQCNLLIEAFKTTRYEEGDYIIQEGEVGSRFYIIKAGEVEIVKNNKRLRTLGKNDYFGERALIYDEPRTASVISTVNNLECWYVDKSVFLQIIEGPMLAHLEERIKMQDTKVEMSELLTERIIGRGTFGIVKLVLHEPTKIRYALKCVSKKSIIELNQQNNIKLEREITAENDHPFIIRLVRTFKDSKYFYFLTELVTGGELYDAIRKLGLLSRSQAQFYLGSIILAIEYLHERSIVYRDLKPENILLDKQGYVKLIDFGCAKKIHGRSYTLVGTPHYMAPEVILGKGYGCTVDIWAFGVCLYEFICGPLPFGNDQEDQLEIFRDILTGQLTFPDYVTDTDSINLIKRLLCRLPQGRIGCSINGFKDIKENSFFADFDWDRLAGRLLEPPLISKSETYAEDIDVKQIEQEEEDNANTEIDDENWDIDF
The experiment can be described thus: affinity purification with mass spectrometry.

Experiment [2] addresses P. falciparum cGMP-dependent protein kinase tagged with GFP (P. falciparum) (UniProt Q8I719). Briefly: affinity purification with mass spectrometry.

These are yes or no findings as the source states them, for the method shown. Binding seen in cells or lysates may run through a third protein. Here binding means that the protein was enriched with, or labelled near, the bait; the list need not be complete. For some assays here: Sequences can lack the tags named with a protein.

With “P. berghei Important for Calcium Mobilisation 1 (from UniProt A0A509AV38)”, in experiment [1], the binding result is listed as “binds”.

With “P. falciparum Important for Calcium Mobilisation 1 (from UniProt Q8I5A6)”, the binding entry in experiment [2] is recorded as “binds”.
